Assay results published in PubChem BioAssay AID220 (DTP/NCI, 2004).
The list is a part of this screen's results and no random one: it gathers tests that were run many times, whatever their T/C, doses with no T/C, and many T/C values between a quarter and a half above the control. Further doses and runs are listed elsewhere. T/C: endpoint of the treated group in % of that of the vehicle group. Schedules are NCI's codes, taken here to give the interval after Q, in days (D) or hours (H), and the number of doses after X. Some doses were run more than once; the results are listed from low to high. Some T/C values are followed by the survivors on the day toxicity was checked, most often the fifth; without a count, all were alive then. Some doses have a count of surviving animals in place of a T/C: the source files T/C as zero there, which appears to mark a toxic dose or a test without result, not a measured value. Survivors were counted at the toxicity check, usually on the fifth day, unless a day is given; later deaths do not show.

Test system: CD8F1 mice, subcutaneous mammary adenocarcinoma, T/C%
Test: NCI In Vivo Anticancer Drug Screen. Data for tumor model Mammary Adenocarcinoma CD8F1 (subcutaneous) in CD8F1
Conditions: higher T/C = larger tumour
In short: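 Ratio of treated to vehicle-control outcome, based on either survival or tumor size, in mice bearing transplantable tumors given the test compound.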

[1] = T/C endpoint: median tumor weight change, dose: 250.0 mg/kg/injection, schedule: Q01DX001 (ip), vehicle: water
[2] = T/C endpoint: median tumor weight (est.), dose: 200.0 mg/kg/injection, schedule: Q07DX005 (ip), vehicle: saline with Tween-80

## O=C(CCl)NC(Cc1ccc(N(CCCl)CCCl)cc1)C(=O)O (stereo not drawn)
T/C endpoint: median tumor weight (est.), dose: 2.0 mg/kg/injection, schedule: Q01DX001 (ip), vehicle: Klucel (hydroxypropylcellulose) (HPC), evaluated on day 32
  T/C: 142 % of control
T/C endpoint: median tumor weight (est.), dose: 4.0 mg/kg/injection, schedule: Q01DX001 (ip), vehicle: Klucel (hydroxypropylcellulose) (HPC), evaluated on day 30
  T/C: 131 % of control
T/C endpoint: median tumor weight (est.), dose: 128.0 mg/kg/injection, schedule: Q01DX001 (ip), vehicle: Klucel (hydroxypropylcellulose) (HPC)
  survivor count: 0 of 10 on day 30 and 1 of 10 on day 32
T/C endpoint: median tumor weight (est.), dose: 256.0 mg/kg/injection, schedule: Q01DX001 (ip), vehicle: Klucel (hydroxypropylcellulose) (HPC)
  survivor count: 0 of 10 on day 30 and 0 of 10 on day 32

## CN1N=C(N)c2cn(C3OC(COP(=O)(O)O)C(O)C3O)c3ncnc1c23 (stereo not drawn)
T/C endpoint: median tumor weight (est.), dose: 200.0 mg/kg/injection, schedule: Q07DX005 (ip), vehicle: water
  survivor count: 0 of 10 on day 30
T/C endpoint: median tumor weight (est.), dose: 400.0 mg/kg/injection, schedule: Q07DX005 (ip), vehicle: water
  survivor count: 0 of 10 on day 30

## CC[PH+](CC)CC[S-].CC[PH+](CC)CC[S-].[Au+].[Au+]
T/C endpoint: median tumor weight change, dose: 25.0 mg/kg/injection, schedule: Q01DX001 (ip), vehicle: Klucel (hydroxypropylcellulose) (HPC), evaluated on day 32
  T/C: 135 % of control
T/C endpoint: median tumor weight change, dose: 200.0 mg/kg/injection, schedule: Q01DX001 (ip), vehicle: Klucel (hydroxypropylcellulose) (HPC)
  survivor count: 0 of 10 on day 41
T/C endpoint: median tumor weight change, dose: 400.0 mg/kg/injection, schedule: Q01DX001 (ip), vehicle: Klucel (hydroxypropylcellulose) (HPC)
  survivor count: 0 of 10 on day 32 and 0 of 10 on day 41

## NC(Cc1ccc(N(CCCl)CCCl)cc1)C(=O)O (stereo not drawn)
T/C endpoint: median tumor weight (est.), dose: 32.0 mg/kg/injection, schedule: Q07DX005 (ip), vehicle: Klucel (hydroxypropylcellulose) (HPC)
  survivor count: 0 of 10 on day 32
T/C endpoint: median tumor weight (est.), dose: 64.0 mg/kg/injection, schedule: Q07DX005 (ip), vehicle: Klucel (hydroxypropylcellulose) (HPC)
  survivor count: 0 of 10 on day 32

## CCC[CH2][Sn]1([CH2]CCC)[O]C2C(CO)OC(n3ccc(N)nc3=O)C2[O]1 (stereo not drawn)
T/C endpoint: median tumor weight (est.), dose: 0.78 mg/kg/injection, schedule: Q07DX005 (ip), vehicle: Klucel (hydroxypropylcellulose) (HPC), evaluated on day 30
  T/C: 131 % of control [9 of 10 alive]
T/C endpoint: median tumor weight (est.), dose: 3.12 mg/kg/injection, schedule: Q07DX005 (ip), vehicle: Klucel (hydroxypropylcellulose) (HPC), evaluated on day 33
  T/C: 135 % of control
T/C endpoint: median tumor weight (est.), dose: 12.5 mg/kg/injection, schedule: Q07DX005 (ip), vehicle: Klucel (hydroxypropylcellulose) (HPC)
  survivor count: 5 of 10 on day 30
T/C endpoint: median tumor weight (est.), dose: 25.0 mg/kg/injection, schedule: Q07DX005 (ip), vehicle: Klucel (hydroxypropylcellulose) (HPC)
  survivor count: 0 of 10 on day 30

## NC(CNC(=O)CBr)C(=O)O (stereo not drawn)
[1]
  survivor count: 0 of 10 on day 29
T/C endpoint: median tumor weight change, dose: 500.0 mg/kg/injection, schedule: Q01DX001 (ip), vehicle: water
  survivor count: 0 of 10 on day 29
T/C endpoint: median tumor weight change, dose: 1000.0 mg/kg/injection, schedule: Q01DX001 (ip), vehicle: water
  survivor count: 0 of 10 on day 29

## CC1CN=C(c2ccc(NC(=O)c3ccc(C(=O)Nc4ccc(C5=NCC(C)N5)cc4)cc3)cc2)N1 (stereo not drawn)
T/C endpoint: median tumor weight (est.), dose: 12.5 mg/kg/injection, schedule: Q07DX005 (ip), vehicle: Klucel (hydroxypropylcellulose) (HPC), evaluated on day 30
  T/C: 136 % of control
T/C endpoint: median tumor weight (est.), dose: 25.0 mg/kg/injection, schedule: Q07DX005 (ip), vehicle: Klucel (hydroxypropylcellulose) (HPC), evaluated on day 30
  T/C: 130 % of control

## COc1cc2cc[n+](C)c(Cc3ccccc3)c2cc1OC
T/C endpoint: median tumor weight (est.), dose: 100.0 mg/kg/injection, schedule: Q07DX005 (ip), vehicle: saline with Tween-80
  survivor count: 0 of 10 on day 30
[2]
  survivor count: 0 of 10 on day 30

## C[n+]1c2cc(N)ccc2cc2ccc(N)cc21
T/C endpoint: median tumor weight (est.), dose: 25.0 mg/kg/injection, schedule: Q07DX005 (ip), vehicle: saline
  survivor count: 3 of 10 on day 30
T/C endpoint: median tumor weight (est.), dose: 50.0 mg/kg/injection, schedule: Q07DX005 (ip), vehicle: saline
  survivor count: 0 of 10 on day 30

## CC1(C)CC1(Br)Br
[2]
  survivor count: 4 of 10 on day 30
T/C endpoint: median tumor weight (est.), dose: 400.0 mg/kg/injection, schedule: Q07DX005 (ip), vehicle: saline with Tween-80
  survivor count: 0 of 10 on day 30

## Nc1nc(N)c2c(ccc3c2ccn3Cc2cccc([N+](=O)[O-])c2)n1
T/C endpoint: median tumor weight change, dose: 7.8 mg/kg/injection, schedule: Q01DX001 (ip), vehicle: saline with Tween-80, evaluated on day 29
  T/C: 117 % of control
T/C endpoint: median tumor weight change, dose: 7.8 mg/kg/injection, schedule: Q01DX001 (ip), vehicle: saline with Tween-80, evaluated on day 30
  T/C: 97 % of control
T/C endpoint: median tumor weight change, dose: 7.8 mg/kg/injection, schedule: Q01DX001 (ip), vehicle: saline with Tween-80, evaluated on day 34
  T/C: 44 % of control
T/C endpoint: median tumor weight change, dose: 7.8 mg/kg/injection, schedule: Q01DX001 (ip), vehicle: saline with Tween-80, evaluated on day 36
  T/C: 107 % of control
T/C endpoint: median tumor weight change, dose: 15.5 mg/kg/injection, schedule: Q01DX001 (ip), vehicle: saline with Tween-80, evaluated on day 29
  T/C: 128 % of control
T/C endpoint: median tumor weight change, dose: 15.5 mg/kg/injection, schedule: Q01DX001 (ip), vehicle: saline with Tween-80, evaluated on day 30
  T/C: 54 % of control
T/C endpoint: median tumor weight change, dose: 15.5 mg/kg/injection, schedule: Q01DX001 (ip), vehicle: saline with Tween-80, evaluated on day 34
  T/C: 50 % of control
T/C endpoint: median tumor weight change, dose: 15.5 mg/kg/injection, schedule: Q01DX001 (ip), vehicle: saline with Tween-80, evaluated on day 36
  T/C: 39 and 96 % of control
T/C endpoint: median tumor weight change, dose: 31.0 mg/kg/injection, schedule: Q01DX001 (ip), vehicle: saline with Tween-80, evaluated on day 28
  T/C: 47 % of control
T/C endpoint: median tumor weight change, dose: 31.0 mg/kg/injection, schedule: Q01DX001 (ip), vehicle: saline with Tween-80, evaluated on day 29
  T/C: 84 % of control
T/C endpoint: median tumor weight change, dose: 31.0 mg/kg/injection, schedule: Q01DX001 (ip), vehicle: saline with Tween-80, evaluated on day 30
  T/C: 86 % of control
T/C endpoint: median tumor weight change, dose: 31.0 mg/kg/injection, schedule: Q01DX001 (ip), vehicle: saline with Tween-80, evaluated on day 34
  T/C: 52 % of control
T/C endpoint: median tumor weight change, dose: 31.0 mg/kg/injection, schedule: Q01DX001 (ip), vehicle: saline with Tween-80, evaluated on day 36
  T/C: 40 [9 of 10 alive on day 36] and 90 % of control
T/C endpoint: median tumor weight change, dose: 62.0 mg/kg/injection, schedule: Q01DX001 (ip), vehicle: saline with Tween-80, evaluated on day 28
  T/C: 16 % of control [9 of 10 alive on day 28]
T/C endpoint: median tumor weight change, dose: 62.0 mg/kg/injection, schedule: Q01DX001 (ip), vehicle: saline with Tween-80, evaluated on day 29
  T/C: 41 % of control [7 of 10 alive on day 29]
T/C endpoint: median tumor weight change, dose: 62.0 mg/kg/injection, schedule: Q01DX001 (ip), vehicle: saline with Tween-80, evaluated on day 30
  T/C: 47 % of control [9 of 10 alive on day 30]
T/C endpoint: median tumor weight change, dose: 62.0 mg/kg/injection, schedule: Q01DX001 (ip), vehicle: saline with Tween-80, evaluated on day 34
  T/C: 39 % of control
T/C endpoint: median tumor weight change, dose: 62.0 mg/kg/injection, schedule: Q01DX001 (ip), vehicle: saline with Tween-80, evaluated on day 36
  T/C: 23 % of control
T/C endpoint: median tumor weight change, dose: 124.0 mg/kg/injection, schedule: Q01DX001 (ip), vehicle: saline with Tween-80
  survivor count: 0 of 10 on day 30, 3 of 10 on day 29, 3 of 10 on day 36, 4 of 10 on day 34, 6 of 10 on day 36

## COC(=O)CC(N)C(=O)O (stereo not drawn)
T/C endpoint: median tumor weight change, dose: 62.5 mg/kg/injection, schedule: Q01DX001 (ip), vehicle: saline, evaluated on day 36
  T/C: 149 % of control
T/C endpoint: median tumor weight change, dose: 500.0 mg/kg/injection, schedule: Q01DX001 (ip), vehicle: saline
  survivor count: 1 of 10 on day 36
T/C endpoint: median tumor weight change, dose: 1000.0 mg/kg/injection, schedule: Q01DX001 (ip), vehicle: saline
  survivor count: 1 of 10 on day 36

## CC(Oc1ccccc1-c1ccccc1)C(=O)N(C)C (stereo not drawn)
T/C endpoint: median tumor weight change, dose: 1000.0 mg/kg/injection, schedule: Q01DX001 (ip), vehicle: saline with Tween-80
  survivor count: 0 of 10 on day 28
T/C endpoint: median tumor weight change, dose: 2000.0 mg/kg/injection, schedule: Q01DX001 (ip), vehicle: saline with Tween-80
  survivor count: 0 of 10 on day 28

## COc1ccc(-c2csc(=[N+]3CCCCC3)s2)cc1
T/C endpoint: median tumor weight change, dose: 16.0 mg/kg/injection, schedule: Q01DX001 (ip), vehicle: saline with Tween-80, evaluated on day 28
  T/C: 136 % of control
T/C endpoint: median tumor weight change, dose: 16.0 mg/kg/injection, schedule: Q01DX001 (ip), vehicle: water, evaluated on day 32
  T/C: 129 % of control
T/C endpoint: median tumor weight change, dose: 62.0 mg/kg/injection, schedule: Q01DX001 (ip), vehicle: water
  survivor count: 2 of 10 on day 32
T/C endpoint: median tumor weight change, dose: 62.5 mg/kg/injection, schedule: Q01DX001 (ip), vehicle: saline with Tween-80
  survivor count: 2 of 10 on day 28
T/C endpoint: median tumor weight change, dose: 125.0 mg/kg/injection, schedule: Q01DX001 (ip), vehicle: saline with Tween-80
  survivor count: 0 of 10 on day 28
T/C endpoint: median tumor weight change, dose: 125.0 mg/kg/injection, schedule: Q01DX001 (ip), vehicle: water
  survivor count: 0 of 10 on day 32
T/C endpoint: median tumor weight change, dose: 250.0 mg/kg/injection, schedule: Q01DX001 (ip), vehicle: saline with Tween-80
  survivor count: 0 of 10 on day 28
[1]
  survivor count: 0 of 10 on day 32
